Measured values taken from patent publication US20210137809A1 (Biosolution Co., Ltd, priority 2017, published 2021).

Assay: peptide synthesis
Conditions: whole synthesis

Q: Which “final purity (method not given)” value does the source give for “Arg-Pro-Lys-Pro-Gln-Gln-Phe-Phe-Gly-Leu-Met-NH2” here?
A: The value was 85% or more.
